# Measured values taken from the supplement of paper PMC11438910.
# This is one part of the list. Only a few entries rise above the background.
# Assays:
# Assay in all cases: fluorescence intensity of antibody binding to polysaccharide-coupled beads; higher = stronger binding
# [1] = target: pneumococcal polysaccharide Pn6A
# [2] = target: pneumococcal polysaccharide Pn6B
# [3] = target: pneumococcal polysaccharide Pn6C
# [4] = target: pneumococcal polysaccharide Pn6D
# [5] = target: pneumococcal polysaccharide Pn7A
# [6] = target: pneumococcal polysaccharide Pn7B
# [7] = target: pneumococcal polysaccharide Pn7C
# [8] = target: pneumococcal polysaccharide Pn7F
# [9] = target: pneumococcal polysaccharide Pn8
# [10] = target: pneumococcal polysaccharide Pn9A
# [11] = target: pneumococcal polysaccharide Pn9L
# [12] = target: pneumococcal polysaccharide Pn9N
# [13] = antibody concentration 81.7561 ng/mL
# [14] = antibody concentration 437.17 ng/mL
# [15] = antibody concentration 2337.65 ng/mL
# [16] = antibody concentration 12500 ng/mL
# [17] = antibody concentration 0.1 ng/mL
# [18] = antibody concentration 0.534724 ng/mL
# [19] = antibody concentration 2.8593 ng/mL
# [20] = antibody concentration 15.2894 ng/mL
binder,measurement,setting,value
4-127.1 (protein) chain 1: QVQLQESGPGLVKPSETLSLTCAVSDYSINTGHGWTWIRQPPGKGLEWIGYIGGSSGSPNYNPSLKSRVTISKDTSKNELSLKLNSVTAADTAVYYCARRIPADRSGNDFWGQGVLVTVSS chain 2: QSVLTQPPSVSGDPGQRVTISCTGSSSNIGGFYGYWYQQFPGTAPKLLIYDNNKRPSGISDRFSGSKSGTSASLTITGLQPGDEADYYCGSWDSSLSAHVFGSGTKLTVL,fluorescence intensity,[1]; [13],20.5 MFI
same,fluorescence intensity,[1]; [14],22 MFI
same,fluorescence intensity,[1]; [15],28.8 MFI
same,fluorescence intensity,[1]; [16],35.5 MFI
same,fluorescence intensity,[2]; [17],17.2 MFI
same,fluorescence intensity,[2]; [18],19.5 MFI
same,fluorescence intensity,[2]; [19],18.5 MFI
same,fluorescence intensity,[2]; [20],19.8 MFI
same,fluorescence intensity,[2]; [13],19.5 MFI
same,fluorescence intensity,[2]; [14],20 MFI
same,fluorescence intensity,[2]; [15],25.5 MFI
same,fluorescence intensity,[2]; [16],35.2 MFI
same,fluorescence intensity,[3]; [17],20.5 MFI
same,fluorescence intensity,[3]; [18],17 MFI
same,fluorescence intensity,[3]; [19],22.5 MFI
same,fluorescence intensity,[3]; [20],27 MFI
same,fluorescence intensity,[3]; [13],51.5 MFI
same,fluorescence intensity,[3]; [14],52.2 MFI
same,fluorescence intensity,[3]; [15],55.8 MFI
same,fluorescence intensity,[3]; [16],65 MFI
same,fluorescence intensity,[4]; [17],15.8 MFI
same,fluorescence intensity,[4]; [18],18.5 MFI
same,fluorescence intensity,[4]; [19],16.5 MFI
same,fluorescence intensity,[4]; [20],17.5 MFI
same,fluorescence intensity,[4]; [13],16.5 MFI
same,fluorescence intensity,[4]; [14],16 MFI
same,fluorescence intensity,[4]; [15],18.8 MFI
same,fluorescence intensity,[4]; [16],21 MFI
same,fluorescence intensity,[5]; [17],20.2 MFI
same,fluorescence intensity,[5]; [18],21 MFI
same,fluorescence intensity,[5]; [19],19.5 MFI
same,fluorescence intensity,[5]; [20],20.2 MFI
same,fluorescence intensity,[5]; [13],19.5 MFI
same,fluorescence intensity,[5]; [14],20 MFI
same,fluorescence intensity,[5]; [15],27 MFI
same,fluorescence intensity,[5]; [16],82 MFI
same,fluorescence intensity,[6]; [17],16.5 MFI
same,fluorescence intensity,[6]; [18],15.5 MFI
same,fluorescence intensity,[6]; [19],15.5 MFI
same,fluorescence intensity,[6]; [20],16.5 MFI
same,fluorescence intensity,[6]; [13],17.8 MFI
same,fluorescence intensity,[6]; [14],15.5 MFI
same,fluorescence intensity,[6]; [15],17.8 MFI
same,fluorescence intensity,[6]; [16],28.5 MFI
same,fluorescence intensity,[7]; [17],16.8 MFI
same,fluorescence intensity,[7]; [18],16 MFI
same,fluorescence intensity,[7]; [19],14.2 MFI
same,fluorescence intensity,[7]; [20],16.5 MFI
same,fluorescence intensity,[7]; [13],14.5 MFI
same,fluorescence intensity,[7]; [14],16.5 MFI
same,fluorescence intensity,[7]; [15],17.5 MFI
same,fluorescence intensity,[7]; [16],27.5 MFI
same,fluorescence intensity,[8]; [17],13.5 MFI
same,fluorescence intensity,[8]; [18],15 MFI
same,fluorescence intensity,[8]; [19],15 MFI
same,fluorescence intensity,[8]; [20],14.8 MFI
same,fluorescence intensity,[8]; [13],14.5 MFI
same,fluorescence intensity,[8]; [14],16.5 MFI
same,fluorescence intensity,[8]; [15],24 MFI
same,fluorescence intensity,[8]; [16],82.5 MFI
same,fluorescence intensity,[9]; [17],20 MFI
same,fluorescence intensity,[9]; [18],21.8 MFI
same,fluorescence intensity,[9]; [19],22.5 MFI
same,fluorescence intensity,[9]; [20],22 MFI
same,fluorescence intensity,[9]; [13],21.5 MFI
same,fluorescence intensity,[9]; [14],23.5 MFI
same,fluorescence intensity,[9]; [15],29.5 MFI
same,fluorescence intensity,[9]; [16],43 MFI
same,fluorescence intensity,[10]; [17],20.5 MFI
same,fluorescence intensity,[10]; [18],19.5 MFI
same,fluorescence intensity,[10]; [19],16.5 MFI
same,fluorescence intensity,[10]; [20],18.5 MFI
same,fluorescence intensity,[10]; [13],20 MFI
same,fluorescence intensity,[10]; [14],20 MFI
same,fluorescence intensity,[10]; [15],21.8 MFI
same,fluorescence intensity,[10]; [16],33 MFI
same,fluorescence intensity,[11]; [17],18.8 MFI
same,fluorescence intensity,[11]; [18],17.8 MFI
same,fluorescence intensity,[11]; [19],18 MFI
same,fluorescence intensity,[11]; [20],18 MFI
same,fluorescence intensity,[11]; [13],17 MFI
same,fluorescence intensity,[11]; [14],17.5 MFI
same,fluorescence intensity,[11]; [15],19 MFI
same,fluorescence intensity,[11]; [16],25.5 MFI
same,fluorescence intensity,[12]; [17],16.5 MFI
same,fluorescence intensity,[12]; [18],16 MFI
same,fluorescence intensity,[12]; [19],16 MFI
same,fluorescence intensity,[12]; [20],16 MFI
same,fluorescence intensity,[12]; [13],16.5 MFI
same,fluorescence intensity,[12]; [14],16.5 MFI

# Shown bar-delimited: entries from further up.
binder | measurement | setting | value
4-127.1 (protein) chain 1: QVQLQESGPGLVKPSETLSLTCAVSDYSINTGHGWTWIRQPPGKGLEWIGYIGGSSGSPNYNPSLKSRVTISKDTSKNELSLKLNSVTAADTAVYYCARRIPADRSGNDFWGQGVLVTVSS chain 2: QSVLTQPPSVSGDPGQRVTISCTGSSSNIGGFYGYWYQQFPGTAPKLLIYDNNKRPSGISDRFSGSKSGTSASLTITGLQPGDEADYYCGSWDSSLSAHVFGSGTKLTVL | fluorescence intensity | [2]; [18] | 19.5 MFI
same | fluorescence intensity | [2]; [14] | 20 MFI
same | fluorescence intensity | [3]; [18] | 17 MFI
same | fluorescence intensity | [4]; [17] | 15.8 MFI
same | fluorescence intensity | [4]; [18] | 18.5 MFI
same | fluorescence intensity | [4]; [15] | 18.8 MFI
same | fluorescence intensity | [5]; [19] | 19.5 MFI
same | fluorescence intensity | [5]; [14] | 20 MFI
same | fluorescence intensity | [6]; [13] | 17.8 MFI
same | fluorescence intensity | [6]; [15] | 17.8 MFI
same | fluorescence intensity | [7]; [18] | 16 MFI
same | fluorescence intensity | [7]; [16] | 27.5 MFI
same | fluorescence intensity | [8]; [17] | 13.5 MFI
same | fluorescence intensity | [8]; [13] | 14.5 MFI
same | fluorescence intensity | [8]; [14] | 16.5 MFI
same | fluorescence intensity | [9]; [17] | 20 MFI
same | fluorescence intensity | [9]; [19] | 22.5 MFI
same | fluorescence intensity | [9]; [13] | 21.5 MFI
same | fluorescence intensity | [9]; [14] | 23.5 MFI
same | fluorescence intensity | [10]; [15] | 21.8 MFI
same | fluorescence intensity | [10]; [16] | 33 MFI
same | fluorescence intensity | [11]; [15] | 19 MFI
same | fluorescence intensity | [11]; [16] | 25.5 MFI
same | fluorescence intensity | [12]; [13] | 16.5 MFI
